Results are given in words; binding and its absence hold for the method and conditions named. Binding seen in cells or lysates may run through a third protein. A yes stands for co-enrichment or nearness to the bait. Other partners may have been found.
Target: Myc-RUVBL1 (UniProt Q9Y265)
Test: affinity purification with mass spectrometry; HEK293T cells transfected with control vector or Myc-RUVBL1; IP with Myc antibody on protein G/A magnetic beads, SDS-PAGE, gel slices to mass spectrometry

Sequences of proteins named here, by UniProt entry; tags and fusion partners are left off.
UniProt Q9Y265: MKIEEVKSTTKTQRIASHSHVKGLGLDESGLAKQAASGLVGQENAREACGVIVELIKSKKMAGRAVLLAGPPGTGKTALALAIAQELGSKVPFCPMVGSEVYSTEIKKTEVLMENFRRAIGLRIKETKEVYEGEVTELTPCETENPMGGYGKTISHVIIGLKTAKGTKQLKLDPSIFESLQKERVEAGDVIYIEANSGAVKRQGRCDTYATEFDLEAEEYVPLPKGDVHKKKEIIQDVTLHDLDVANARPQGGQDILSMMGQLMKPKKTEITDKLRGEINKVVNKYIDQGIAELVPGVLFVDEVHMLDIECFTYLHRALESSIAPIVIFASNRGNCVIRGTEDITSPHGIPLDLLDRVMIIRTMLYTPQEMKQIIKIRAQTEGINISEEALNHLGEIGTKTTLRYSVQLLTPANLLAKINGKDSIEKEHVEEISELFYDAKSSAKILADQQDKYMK
UniProt Q9NZJ0: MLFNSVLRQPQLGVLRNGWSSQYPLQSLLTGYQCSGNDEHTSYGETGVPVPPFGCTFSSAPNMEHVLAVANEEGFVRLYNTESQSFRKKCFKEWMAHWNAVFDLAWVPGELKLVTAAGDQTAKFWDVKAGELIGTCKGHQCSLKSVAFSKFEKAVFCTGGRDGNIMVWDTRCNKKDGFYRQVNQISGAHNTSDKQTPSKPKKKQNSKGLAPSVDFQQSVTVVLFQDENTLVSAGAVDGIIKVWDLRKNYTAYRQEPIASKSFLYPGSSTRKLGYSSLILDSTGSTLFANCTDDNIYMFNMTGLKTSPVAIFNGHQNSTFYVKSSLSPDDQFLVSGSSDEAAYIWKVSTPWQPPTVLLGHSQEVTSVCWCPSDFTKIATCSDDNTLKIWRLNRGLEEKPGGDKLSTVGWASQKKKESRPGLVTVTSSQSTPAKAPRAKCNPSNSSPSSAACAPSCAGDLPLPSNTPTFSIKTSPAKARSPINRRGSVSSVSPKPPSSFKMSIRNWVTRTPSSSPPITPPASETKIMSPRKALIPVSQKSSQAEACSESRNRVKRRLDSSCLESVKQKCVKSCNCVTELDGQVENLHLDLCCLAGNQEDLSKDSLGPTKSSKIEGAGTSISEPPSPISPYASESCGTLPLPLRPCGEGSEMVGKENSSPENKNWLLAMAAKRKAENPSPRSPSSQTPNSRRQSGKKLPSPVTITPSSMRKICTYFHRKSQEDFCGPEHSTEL

Question: With DTL (from UniProt Q9NZJ0 1-730) as the substance, how does the binding read?
Answer: binds

Reference: article PMC11015013
